In PMC4891710, “Unexpected involvement of staple leads to redesign of selective bicyclic peptide inhibitor of Grb7” (Scientific Reports, 2016) one finds binding data, which are given here for one molecule.

No constants are given. Whether binding was seen depends on the method and setting. Some results given as binding are weak or reduced against the parent protein; the word gives no strength. Sequences can lack the tags named with a protein.

For experiment [1], the target named is T1, Grb7-SH2 (free, GST removed by thrombin), Q14451.
T1 chain: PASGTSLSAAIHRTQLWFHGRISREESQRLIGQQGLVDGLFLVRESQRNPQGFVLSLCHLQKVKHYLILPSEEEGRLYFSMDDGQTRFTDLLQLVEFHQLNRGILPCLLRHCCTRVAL
Put plainly: crystal structure; Grb7-SH2/G7-B4 complex, 2.47 A, space group P 41212; protein to peptide 1:1.5; 5% Tacsimate pH 5.0, 8% PEG 3350; malonic acid in the pY binding site; both purified. The settings on record: remark: other sources report otherwise.

In experiment [2] the target is T1, Grb7-SH2 (free, GST removed by …). Put plainly: crystal structure; Grb7-SH2/G7-B1 complex, 1.6 A, space group P 21; phosphate in the pY binding site; crystallisation reported previously (ref. 30); both purified. The settings on record: remark: other sources report otherwise.

B1: Grb7-SH2 (free, GST removed by thrombin), Q14451 415-532 (domain or fragment)
chain: PASGTSLSAAIHRTQLWFHGRISREESQRLIGQQGLVDGLFLVRESQRNPQGFVLSLCHLQKVKHYLILPSEEEGRLYFSMDDGQTRFTDLLQLVEFHQLNRGILPCLLRHCCTRVAL
Consider B1, for which the binding entry in experiment [1] and in experiment [2] was “binds” each time.
